# Assay results: paper PMC3366916, “Characterization of a Conserved Interaction between DNA Glycosylase and ParA in Mycobacterium smegmatis and M. tuberculosis” (PLoS ONE, 2012)
# These are yes or no findings as the source states them, for the method shown. Some results given as binding are weak or reduced against the parent protein; the word gives no strength. Sequences can lack the tags named with a protein.
# B1: MtTAG (Rv1210), bacterial two-hybrid fusion (enzyme, UniProt L7N613 1-204)
# chain: MSGDGLVRCPWAEVRPGPDAQLYRDYHDNEWGRPLYGRVALFERMSLEAFQSGLSWLIILRKRENFRRAFSGFDIDKIARYTDTDVRRLLADDGIVRNRAKIEATIANARAAADLGSSEDLSELLWSFAPPPRPRPVDGSEIPSVSTESKAMSRELKRRGFRFVGPTTAYALMQATGMVDDHIQACWVPTERPFDQPGCPMAAR
# Molecular target: MtParA (Rv3918c), bacterial two-hybrid fusion (M. tuberculosis) (UniProt A5U9P6)
# Experiment: two-hybrid
binder,measurement,value
B1,binding,binds
